Experimental findings from paper PMC11136664 are described below.

Amino acid sequences for entries named in this document (tags omitted).
UniProt Q9LNJ5: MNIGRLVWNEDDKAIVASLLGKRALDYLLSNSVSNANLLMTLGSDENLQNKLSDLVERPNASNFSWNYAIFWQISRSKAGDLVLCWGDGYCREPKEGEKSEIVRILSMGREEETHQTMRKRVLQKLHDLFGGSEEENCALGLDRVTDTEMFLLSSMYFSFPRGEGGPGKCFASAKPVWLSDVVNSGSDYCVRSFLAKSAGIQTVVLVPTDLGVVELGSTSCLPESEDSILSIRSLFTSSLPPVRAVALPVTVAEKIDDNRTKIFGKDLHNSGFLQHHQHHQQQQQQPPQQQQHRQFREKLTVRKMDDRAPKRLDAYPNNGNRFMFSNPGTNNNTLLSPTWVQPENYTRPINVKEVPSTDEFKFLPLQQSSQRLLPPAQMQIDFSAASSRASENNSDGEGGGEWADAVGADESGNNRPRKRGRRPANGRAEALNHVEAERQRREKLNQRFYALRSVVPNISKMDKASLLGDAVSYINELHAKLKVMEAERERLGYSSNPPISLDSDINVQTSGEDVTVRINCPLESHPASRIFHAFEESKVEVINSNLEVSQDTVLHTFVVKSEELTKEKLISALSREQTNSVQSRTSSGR

Assay [1] deals with T1, mCherry-tagged TPL expressed in Nicotiana benthamiana (A. thaliana) (UniProt Q94AI7).
T1 sequence: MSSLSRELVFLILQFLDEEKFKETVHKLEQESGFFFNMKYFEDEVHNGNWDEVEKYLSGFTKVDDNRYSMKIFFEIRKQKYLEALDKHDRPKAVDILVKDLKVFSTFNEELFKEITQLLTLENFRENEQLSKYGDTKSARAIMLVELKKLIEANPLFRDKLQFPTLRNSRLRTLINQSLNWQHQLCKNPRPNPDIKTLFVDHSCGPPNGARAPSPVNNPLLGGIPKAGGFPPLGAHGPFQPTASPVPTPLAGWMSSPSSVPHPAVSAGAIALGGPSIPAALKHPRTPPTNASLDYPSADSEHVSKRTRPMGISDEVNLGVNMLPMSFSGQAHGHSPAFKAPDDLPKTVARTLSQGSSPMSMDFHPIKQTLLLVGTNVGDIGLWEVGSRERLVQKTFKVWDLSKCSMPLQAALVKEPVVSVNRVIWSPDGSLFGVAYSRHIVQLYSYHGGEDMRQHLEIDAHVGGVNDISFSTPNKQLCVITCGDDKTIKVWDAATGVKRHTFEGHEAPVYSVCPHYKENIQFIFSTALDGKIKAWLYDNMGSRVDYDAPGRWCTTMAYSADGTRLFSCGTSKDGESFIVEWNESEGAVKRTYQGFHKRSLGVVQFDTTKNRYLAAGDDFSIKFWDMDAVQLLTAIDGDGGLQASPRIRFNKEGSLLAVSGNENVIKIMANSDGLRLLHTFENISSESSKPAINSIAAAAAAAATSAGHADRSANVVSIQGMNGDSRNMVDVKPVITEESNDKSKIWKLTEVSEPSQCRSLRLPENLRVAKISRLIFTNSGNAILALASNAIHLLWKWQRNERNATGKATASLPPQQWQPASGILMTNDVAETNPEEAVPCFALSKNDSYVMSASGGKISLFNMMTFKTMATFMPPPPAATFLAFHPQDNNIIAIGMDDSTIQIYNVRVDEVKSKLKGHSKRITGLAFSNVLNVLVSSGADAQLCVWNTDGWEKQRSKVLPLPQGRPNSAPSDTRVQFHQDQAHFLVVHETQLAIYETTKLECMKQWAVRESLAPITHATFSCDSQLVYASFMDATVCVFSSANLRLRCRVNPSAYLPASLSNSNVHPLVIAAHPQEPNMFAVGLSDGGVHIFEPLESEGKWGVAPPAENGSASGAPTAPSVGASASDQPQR
Kind of assay: FRET or BRET; FRET–FLIM in nuclei of N. benthamiana epidermal cells; leaves kept at 20 °C; GFP–TWA1 donor, mCherry fusion acceptor. In general terms: BRET reads energy transfer from a luciferase to a nearby fluorophore.

Assay [2] has as its target T1, mCherry-tagged TPL expressed in Nicotiana benthamiana (A. thaliana). Kind of assay: FRET or BRET; FRET–FLIM in nuclei of N. benthamiana epidermal cells; leaves 2 days at 20 °C, then exposed to 37 °C for 2 h; GFP–TWA1 donor, mCherry fusion acceptor.
Assay [3] concerns the target JASMONATE-ASSOCIATED MYC-LIKE 2 (JAM2), GAL4-DNA binding domain fusion (A. thaliana) (UniProt Q9LNJ5). Briefly: two-hybrid; growth assay in liquid culture for histidine autotrophy (-L,-W,-H), JAM2 fused to Gal4-BD, partners fused to Gal4-AD; growth rate µ over the first 24 h; at 20 °C.
The target is the same in assay [4]. Kind of assay: two-hybrid; growth assay in liquid culture for histidine autotrophy (-L,-W,-H), JAM2 fused to Gal4-BD, partners fused to Gal4-AD; growth rate µ over the first 24 h; at 25 °C and above (30 °C).
Assay [5] shares this target. Briefly: two-hybrid; TWA1 fused to GAL4-AD against GAL4-BD fusions; serial tenfold culture dilutions on medium without leucine and tryptophan, with or without histidine, at 30 °C; JAM2 first found in a screen of indexed open-reading-frame libraries.
Assay [6] addresses T2, TOPLESS (TPL), GAL4-DNA binding domain fusion (A. thaliana) (UniProt Q94AI7).
T2 sequence: T1 sequence
Described as above.

Results are given in words; binding and its absence hold for the method and conditions named. For part of these data: Binding calls can cover weak binding; strength is not graded here. For part of these data: Where a sequence is shown, tags or fusion partners need not be part of it. For part of these data: In cells and extracts the contact can be indirect.

As to “GFP–TWA1 expressed in Nicotiana benthamiana (A. thaliana)”, the figures for the binding entry in assay [1] and in assay [2] were “no binding (only at 20 °C)” and “binds”, respectively.
For the substance “THERMO-WITH ABA-RESPONSE 1 (TWA1), GAL4-activation domain fusion (from UniProt F4K402)”, the binding result in assay [3] was “no binding (only at 20 °C)”; in assay [4], “binds”; in assay [5] it was “binds”; in assay [6], “binds”.
